# Taken from: PubChem BioAssay AID1159508 (Drosophila RNAi Screening Center, 2015)
# Purpose: 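How silencing genes for RNA-binding proteins changes cellular ATP without other treatment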
# Cells: Drosophila S2R+ cells
# Knock-down reagent: long dsRNA against Drosophila genes
# Timing: 5 days
# Read-out: 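Total ATP per well measured by luciferase luminescence after 5 days, expressed as z-scores for each replicate and as their average across up to three replicates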
# Reading the numbers: mean ATP z-score and ATP z-score: higher = more total ATP luminescence
# Rule for the call: In these data the active calls have mean ATP z-score at about -2 or lower, or at about 2 or higher
# Calls: active = strong ATP change (up or down); inactive = no strong ATP change
# This is an unselected part of 812 reagents. 18 of them (2.2%) were called active. 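Calls include both increased and decreased ATP; roughly one in four reagents has no third replicate value.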 Not stated in the record: the amount of reagent.
predicted target,amplicon,mean ATP z-score,"ATP z-score, replicate 1","ATP z-score, replicate 2","ATP z-score, replicate 3",Call
Dcr-2 (Dicer-2),DRSC29436,0.872,0.452,1.18,,inactive
Dcr-2 (Dicer-2),DRSC32999,-0.884,-1.05,-0.929,-0.507,inactive
fne (found in neurons),DRSC25129,-0.168,-0.244,-0.212,-0.016,inactive
fne (found in neurons),DRSC33310,0.559,-0.363,-0.316,2.25,inactive
elav (embryonic lethal abnormal vision),DRSC18772,1.27,1.03,1.34,,inactive
elav (embryonic lethal abnormal vision),DRSC42719,-0.713,-1,-0.511,-0.486,inactive
tsu (tsunagi),DRSC07265,-0.617,-0.787,-0.367,,inactive
tsu (tsunagi),DRSC31985,0.406,-0.314,0.628,0.825,inactive
CG9630,DRSC16527,-0.384,-0.66,-0.326,-0.091,inactive
CG9630,DRSC42693,-0.177,-0.396,-0.258,0.157,inactive
ssx,DRSC23454,-0.906,-1.02,-0.839,-0.684,inactive
ssx,DRSC38980,0.156,-0.227,0.0789,0.587,inactive
Sas10 (Something about silencing 10),DRSC18355,-0.202,-0.59,0.212,,inactive
Sas10 (Something about silencing 10),DRSC36001,-0.438,-0.651,-0.395,-0.182,inactive
eIF4H2 (eukaryotic translation initiation factor 4H2),DRSC27363,-0.35,-0.846,-0.0777,-0.0584,inactive
eIF4H2 (eukaryotic translation initiation factor 4H2),DRSC42328,1.09,0.871,0.922,1.28,inactive

3 successive records from above, quoted:
predicted target,amplicon,mean ATP z-score,"ATP z-score, replicate 1","ATP z-score, replicate 2","ATP z-score, replicate 3",Call
CG9630,DRSC16527,-0.384,-0.66,-0.326,-0.091,inactive
CG9630,DRSC42693,-0.177,-0.396,-0.258,0.157,inactive
ssx,DRSC23454,-0.906,-1.02,-0.839,-0.684,inactive

Continued.
predicted target,amplicon,mean ATP z-score,"ATP z-score, replicate 1","ATP z-score, replicate 2","ATP z-score, replicate 3",Call
CG6712,DRSC02981,0.684,-0.352,0.0836,2.19,inactive
CG6712,DRSC21690,0.837,0.616,0.857,0.878,inactive
RnpS1 (RNA-binding protein S1),DRSC15154,0.737,0.398,0.542,1.13,inactive
RnpS1 (RNA-binding protein S1),DRSC42694,0.215,-0.678,-0.324,1.61,inactive
Rm62,DRSC25109,-0.0186,-0.355,-0.195,0.498,inactive
Rm62,DRSC32538,0.405,0.27,0.367,0.5,inactive
nonA (no on or off transient A),DRSC27455,-0.7,-0.921,-0.389,,inactive
nonA (no on or off transient A),DRSC41353,0.867,0.586,0.924,0.925,inactive
